This is an account of results in PMC10526654.

Protein sequences, listed by entry. Tags and fused reporters are not part of them. Residues count along the entry.
UniProt P19474: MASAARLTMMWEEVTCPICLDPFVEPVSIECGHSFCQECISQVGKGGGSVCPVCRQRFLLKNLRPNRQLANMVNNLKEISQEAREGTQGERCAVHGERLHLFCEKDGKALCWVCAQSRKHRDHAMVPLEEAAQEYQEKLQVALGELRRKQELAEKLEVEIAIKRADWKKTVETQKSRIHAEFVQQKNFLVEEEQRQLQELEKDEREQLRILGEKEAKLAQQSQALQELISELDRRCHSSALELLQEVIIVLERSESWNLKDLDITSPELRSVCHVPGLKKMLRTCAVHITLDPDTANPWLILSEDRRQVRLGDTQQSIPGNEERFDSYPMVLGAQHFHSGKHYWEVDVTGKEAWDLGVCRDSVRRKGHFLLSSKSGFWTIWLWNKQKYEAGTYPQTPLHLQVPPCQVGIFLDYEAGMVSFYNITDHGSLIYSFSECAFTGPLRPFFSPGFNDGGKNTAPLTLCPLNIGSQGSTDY
UniProt P11047, residues 34-1609: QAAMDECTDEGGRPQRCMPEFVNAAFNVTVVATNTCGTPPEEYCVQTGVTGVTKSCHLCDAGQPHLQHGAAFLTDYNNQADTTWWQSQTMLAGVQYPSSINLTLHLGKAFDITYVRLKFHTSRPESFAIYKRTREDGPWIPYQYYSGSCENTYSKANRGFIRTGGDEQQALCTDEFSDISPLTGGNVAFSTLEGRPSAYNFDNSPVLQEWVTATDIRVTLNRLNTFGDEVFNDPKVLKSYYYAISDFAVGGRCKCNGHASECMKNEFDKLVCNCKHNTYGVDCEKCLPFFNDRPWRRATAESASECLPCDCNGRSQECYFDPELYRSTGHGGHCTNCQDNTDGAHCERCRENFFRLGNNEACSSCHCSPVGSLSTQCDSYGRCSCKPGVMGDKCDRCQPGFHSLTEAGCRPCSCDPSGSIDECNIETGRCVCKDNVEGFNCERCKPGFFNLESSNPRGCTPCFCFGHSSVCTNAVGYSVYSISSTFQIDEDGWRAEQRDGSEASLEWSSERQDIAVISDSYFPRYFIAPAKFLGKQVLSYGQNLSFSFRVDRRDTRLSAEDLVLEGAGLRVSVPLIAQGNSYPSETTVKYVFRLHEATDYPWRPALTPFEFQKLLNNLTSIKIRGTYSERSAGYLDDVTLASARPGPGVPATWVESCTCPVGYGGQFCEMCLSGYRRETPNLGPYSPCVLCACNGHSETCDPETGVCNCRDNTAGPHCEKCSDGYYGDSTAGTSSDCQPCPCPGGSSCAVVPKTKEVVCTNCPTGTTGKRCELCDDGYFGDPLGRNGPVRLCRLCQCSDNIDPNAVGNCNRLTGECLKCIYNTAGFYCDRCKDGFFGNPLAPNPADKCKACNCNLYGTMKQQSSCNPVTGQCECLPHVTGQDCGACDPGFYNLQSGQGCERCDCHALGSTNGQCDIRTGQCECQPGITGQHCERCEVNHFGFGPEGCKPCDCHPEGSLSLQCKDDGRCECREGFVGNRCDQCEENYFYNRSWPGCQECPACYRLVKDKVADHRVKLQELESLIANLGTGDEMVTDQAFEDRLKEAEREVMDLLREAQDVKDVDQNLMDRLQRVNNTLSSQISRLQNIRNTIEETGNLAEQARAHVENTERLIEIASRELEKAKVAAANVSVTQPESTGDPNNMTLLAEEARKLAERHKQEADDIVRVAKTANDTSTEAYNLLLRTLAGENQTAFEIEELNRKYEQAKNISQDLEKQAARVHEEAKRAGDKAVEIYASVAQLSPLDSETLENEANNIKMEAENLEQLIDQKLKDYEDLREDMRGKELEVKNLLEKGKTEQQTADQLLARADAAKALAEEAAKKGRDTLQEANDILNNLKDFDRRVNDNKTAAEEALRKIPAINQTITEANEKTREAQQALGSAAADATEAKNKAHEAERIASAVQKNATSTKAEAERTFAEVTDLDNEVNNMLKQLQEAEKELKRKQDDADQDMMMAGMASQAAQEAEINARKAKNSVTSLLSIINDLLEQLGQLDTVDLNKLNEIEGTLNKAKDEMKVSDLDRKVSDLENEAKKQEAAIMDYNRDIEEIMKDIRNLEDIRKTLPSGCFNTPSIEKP
UniProt Q9UPN9: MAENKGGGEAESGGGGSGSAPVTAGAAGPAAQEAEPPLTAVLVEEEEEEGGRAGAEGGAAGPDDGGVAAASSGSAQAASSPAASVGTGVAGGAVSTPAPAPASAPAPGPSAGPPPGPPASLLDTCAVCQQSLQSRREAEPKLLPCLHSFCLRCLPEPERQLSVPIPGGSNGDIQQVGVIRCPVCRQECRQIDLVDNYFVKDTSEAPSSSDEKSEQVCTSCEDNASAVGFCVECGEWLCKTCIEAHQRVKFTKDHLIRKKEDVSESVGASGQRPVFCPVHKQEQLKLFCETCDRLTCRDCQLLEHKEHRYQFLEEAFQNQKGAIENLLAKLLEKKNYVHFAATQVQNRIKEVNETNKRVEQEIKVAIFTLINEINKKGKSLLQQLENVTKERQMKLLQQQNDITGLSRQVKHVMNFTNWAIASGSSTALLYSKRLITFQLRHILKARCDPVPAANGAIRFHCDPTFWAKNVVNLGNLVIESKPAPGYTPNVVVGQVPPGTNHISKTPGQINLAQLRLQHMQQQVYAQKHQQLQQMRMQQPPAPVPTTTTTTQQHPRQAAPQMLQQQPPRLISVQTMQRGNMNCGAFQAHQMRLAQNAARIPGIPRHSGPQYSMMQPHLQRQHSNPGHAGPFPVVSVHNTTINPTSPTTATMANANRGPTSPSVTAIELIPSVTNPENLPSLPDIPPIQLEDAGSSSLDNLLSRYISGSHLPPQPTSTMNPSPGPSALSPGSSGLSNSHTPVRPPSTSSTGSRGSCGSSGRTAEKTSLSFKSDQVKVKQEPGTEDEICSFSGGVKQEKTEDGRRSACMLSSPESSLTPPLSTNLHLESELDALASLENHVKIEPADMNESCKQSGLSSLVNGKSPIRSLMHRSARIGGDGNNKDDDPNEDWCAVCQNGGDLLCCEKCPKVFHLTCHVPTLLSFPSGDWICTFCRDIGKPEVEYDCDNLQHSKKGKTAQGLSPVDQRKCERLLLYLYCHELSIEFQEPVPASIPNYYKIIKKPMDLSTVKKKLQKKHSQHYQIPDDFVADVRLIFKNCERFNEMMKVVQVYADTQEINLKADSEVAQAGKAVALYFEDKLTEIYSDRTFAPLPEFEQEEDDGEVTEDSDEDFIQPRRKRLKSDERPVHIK

The target in this assay is HA-TRIM21 (in GBM cells) (UniProt P19474). The assay is described as follows: affinity purification with mass spectrometry; TRIM21 immunoprecipitated from U87-MG expressing HA-TRIM21 with anti-HA-conjugated beads; gel pieces digested with trypsin, LTQ-Orbitrap Elite.

These are yes or no findings as the source states them, for the method shown. Binding seen in cells or lysates may run through a third protein. A yes stands for co-enrichment or nearness to the bait. Other partners may have been found.

For the substance LAMC1 (from UniProt P11047 34-1609), the binding entry was “binds”. Turning to “TIF1γ (endogenous in GBM cells) (from UniProt Q9UPN9 1-1127)”, the binding entry is “binds”.
